Reference: PubChem BioAssay AID1259280 (Sanger Institute, 2017)
Test: 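Kinome siRNA screen for partners that synergise with BYL719, cetuximab or trametinib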 (primary screen). Cell system: human SNU407 colorectal cancer cells. Knock-down reagent: siRNA pool against human genes. Conditions: anchor drugs BYL719 at 1 µM, cetuximab at 5 µg/ml or trametinib at 10 nM, or DMSO vehicle alone; exposure time not given. Measured: 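Viability relative to non-targeting control siRNA, expressed as robust z-score, plus a synergy score for each of the three anchor drugs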. Reading the numbers: viability z-score, no drug and viability vs control, no drug: higher = more cells survive the knock-down; synergy with trametinib and synergy with BYL719 and synergy with cetuximab: higher = stronger synergy of knock-down with drug. Active means: 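Essential calls require a no-drug robust viability z-score under -3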. Calls: active = essential (knock-down alone kills cells); inactive = no change without drug.
In all, the deposit lists 794 reagents; this is an unselected part. Of all reagents, 12 (1.5%) got an active call. 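Calls cover knock-down without drug only; synergy scores stand apart, values above 0.15 being treated as synergy.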 No viability above 1 is reported: the scale is capped. Not given: the amount of reagent, the time to read-out.

| gene knocked down | viability z-score, no drug | viability vs control, no drug (fraction of control) | synergy with trametinib | synergy with BYL719 | synergy with cetuximab | activity call |
| --- | --- | --- | --- | --- | --- | --- |
| INSRR (insulin receptor related receptor) | 0.555 | 0.974 | -0.0678 | 0.0327 | -0.0402 | inactive |
| GUCY2D (guanylate cyclase 2D, retinal) | -5.09 | 0.542 | -0.104 | -0.108 | 0.0662 | active |
| PIK3R4 (phosphoinositide-3-kinase regulatory subunit 4) | 0.428 | 0.964 | 0.0055 | 0.0627 | -0.0224 | inactive |
| MAPK13 (mitogen-activated protein kinase 13) | -0.71 | 0.877 | -0.0128 | 0.0098 | -0.0334 | inactive |
| PKN2 (protein kinase N2) | -0.0873 | 0.924 | 0.0209 | 0.151 | 0.0933 | inactive |
| NEK5 (NIMA related kinase 5) | 0.226 | 0.948 | -0.0174 | -0.0127 | -0.0159 | inactive |
| HCK (HCK proto-oncogene, Src family tyrosine kinase) | 0.102 | 0.939 | -0.0568 | -0.0531 | 0.0651 | inactive |
| IGF2R (insulin like growth factor 2 receptor) | 0.901 | 1 | -0.0869 | -0.0269 | 0.024 | inactive |
| MAPK4 (mitogen-activated protein kinase 4) | 0.298 | 0.954 | 0.119 | -0.0468 | -0.0014 | inactive |
| TSSK4 (testis specific serine kinase 4) | 0.901 | 1 | 0.00368 | 0.0649 | 0.0494 | inactive |
| PI4KA (phosphatidylinositol 4-kinase alpha) | 0.249 | 0.95 | -0.0921 | -0.0395 | -0.0206 | inactive |
| EPHA3 (EPH receptor A3) | 0.409 | 0.962 | 0.0473 | 0.121 | 0.0747 | inactive |
| CILK1 (ciliogenesis associated kinase 1) | -0.558 | 0.889 | -0.0485 | 0.00498 | -0.0201 | inactive |
| CDK5 (cyclin dependent kinase 5) | 0.557 | 0.974 | -0.055 | -0.0452 | 0.0474 | inactive |
| SRGAP3 (SLIT-ROBO Rho GTPase activating protein 3) | 0.553 | 0.973 | -0.0291 | -0.071 | -0.0431 | inactive |
| CDC42BPA (CDC42 binding protein kinase alpha) | -2.45 | 0.744 | -0.0729 | -0.151 | -0.026 | inactive |
| CSNK1A1L (casein kinase 1 alpha 1 like) | 0.574 | 0.975 | -0.147 | 0.0192 | -0.0194 | inactive |
| FCSK (fucose kinase) | 0.108 | 0.939 | -0.0356 | 0.0791 | 0.0307 | inactive |
| MAPK10 (mitogen-activated protein kinase 10) | 0.516 | 0.971 | -0.0103 | 0.0856 | -0.076 | inactive |
| SGK2 (serum/glucocorticoid regulated kinase 2) | -0.805 | 0.87 | 0.105 | 0.057 | 0.043 | inactive |
| CDKN1A (cyclin dependent kinase inhibitor 1A) | 0.901 | 1 | -0.0343 | -0.038 | 0.0459 | inactive |
| BRSK2 (BR serine/threonine kinase 2) | 0.901 | 1 | 0.0682 | 0.00223 | 0.0199 | inactive |
| CDK1 (cyclin dependent kinase 1) | 0.803 | 0.993 | 0.0872 | 0.0714 | 0.136 | inactive |
| MAP3K2 (mitogen-activated protein kinase kinase kinase 2) | 0.457 | 0.966 | -0.0294 | -0.00393 | 0.0319 | inactive |
| CKS1B (CDC28 protein kinase regulatory subunit 1B) | 0.046 | 0.935 | -0.0213 | 0.0406 | -0.00564 | inactive |
| DAPK3 (death associated protein kinase 3) | -1.31 | 0.831 | -0.142 | -0.0196 | 0.0358 | inactive |
| ACVR1C (activin A receptor type 1C) | 0.901 | 1 | 0.0496 | 0.049 | -0.0886 | inactive |
| ELF3 (E74 like ETS transcription factor 3) | 0.901 | 1 | 0.022 | -0.0224 | -0.0886 | inactive |

Targets listed so far whose target name begins with E or e:
| gene knocked down | viability z-score, no drug | viability vs control, no drug (fraction of control) | synergy with trametinib | synergy with BYL719 | synergy with cetuximab | activity call |
| --- | --- | --- | --- | --- | --- | --- |
| EPHA3 (EPH receptor A3) | 0.409 | 0.962 | 0.0473 | 0.121 | 0.0747 | inactive |
| ELF3 (E74 like ETS transcription factor 3) | 0.901 | 1 | 0.022 | -0.0224 | -0.0886 | inactive |

The listing continues:
| gene knocked down | viability z-score, no drug | viability vs control, no drug (fraction of control) | synergy with trametinib | synergy with BYL719 | synergy with cetuximab | activity call |
| --- | --- | --- | --- | --- | --- | --- |
| RPS6KA5 (ribosomal protein S6 kinase A5) | 0.807 | 0.993 | 0.13 | 0.168 | 0.138 | inactive |
| ULK3 (unc-51 like kinase 3) | -0.687 | 0.879 | -0.112 | -0.11 | -0.0952 | inactive |
| CDK6 (cyclin dependent kinase 6) | -1.08 | 0.849 | -0.0111 | -0.0154 | -0.041 | inactive |
| SYK (spleen associated tyrosine kinase) | -3.53 | 0.662 | 0.00434 | 0.148 | 0.0502 | active |
| STK10 (serine/threonine kinase 10) | 0.238 | 0.949 | 0.0419 | 0.0335 | -0.0738 | inactive |
| EIF2AK4 (eukaryotic translation initiation factor 2 alpha kinase 4) | 0.901 | 1 | 0.0173 | 0.0393 | -0.0512 | inactive |
| CIB2 (calcium and integrin binding family member 2) | -0.265 | 0.911 | -0.042 | 0.0483 | -0.00626 | inactive |
| STK26 (serine/threonine kinase 26) | -0.121 | 0.922 | -0.00999 | -0.0594 | -0.159 | inactive |
| GK2 (glycerol kinase 2) | 0.426 | 0.964 | -0.022 | 0.0693 | 0.082 | inactive |
| PRKD2 (protein kinase D2) | 0.901 | 1 | -0.0758 | -0.0199 | 0.059 | inactive |
| BUB1B (BUB1 mitotic checkpoint serine/threonine kinase B) | -0.462 | 0.896 | -0.0392 | -0.0408 | 0.00268 | inactive |
| MAP3K9 (mitogen-activated protein kinase kinase kinase 9) | -0.555 | 0.889 | 0.0209 | 0.153 | 0.0718 | inactive |
| PTPRU (protein tyrosine phosphatase receptor type U) | -0.576 | 0.887 | -0.0361 | 0.0323 | -0.00605 | inactive |
| ATRX (ATRX chromatin remodeler) | 0.901 | 1 | -0.0595 | -0.0971 | -0.0886 | inactive |
| MAPKAPK3 (MAPK activated protein kinase 3) | -0.997 | 0.855 | -0.0585 | -0.00529 | -0.0364 | inactive |
| NME1 (NME/NM23 nucleoside diphosphate kinase 1) | 0.504 | 0.97 | -0.204 | -0.112 | -0.1 | inactive |
| ITPKB (inositol-trisphosphate 3-kinase B) | 0.901 | 1 | 0.0484 | 0.0863 | 0.105 | inactive |
| PIM1 (Pim-1 proto-oncogene, serine/threonine kinase) | 0.0632 | 0.936 | -0.112 | 0.0752 | -0.0165 | inactive |
| CDK13 (cyclin dependent kinase 13) | 0.901 | 1 | 0.016 | 0.0541 | -0.00696 | inactive |
| MAPK8 (mitogen-activated protein kinase 8) | -1.31 | 0.831 | -0.0146 | -0.114 | -0.158 | inactive |
| NRAS (NRAS proto-oncogene, GTPase) | 0.711 | 0.985 | -0.0545 | -0.0263 | 0.013 | inactive |
| UHMK1 (U2AF homology motif kinase 1) | 0.731 | 0.987 | 0.0789 | -0.00255 | 0.0677 | inactive |
